Results as given in patent US20220306753A1 (JN BIOSCIENCES, published 2022).
Residue numbers refer to the chain shown, from its start. These are yes or no findings as the source states them, for the method shown. Some entries that bind do so weakly or less than the wild type. For some of these results: Sequences can lack the tags named with a protein. Values belong to the binder of their own block, whether it stands above or below them.

Columns and labels:
CD122-FLAG-GPI (human) [1] = target: T1, CD122-FLAG-GPI (human); assay: flow cytometry on NS0/CD122 cells, 2.5 µg/ml and 4-fold dilutions, PE anti-human IgG
T1 sequence: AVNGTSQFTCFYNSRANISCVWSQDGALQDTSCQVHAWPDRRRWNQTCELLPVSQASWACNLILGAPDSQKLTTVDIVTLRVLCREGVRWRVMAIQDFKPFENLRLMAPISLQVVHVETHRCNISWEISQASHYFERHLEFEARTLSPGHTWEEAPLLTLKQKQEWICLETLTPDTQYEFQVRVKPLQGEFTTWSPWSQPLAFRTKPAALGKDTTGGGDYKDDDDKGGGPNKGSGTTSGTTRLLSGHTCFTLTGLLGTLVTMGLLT

[2] = target: T2, cynomolgus CD122 (cynomolgus) (UniProt Q38J85); assay: assay not described
T2 sequence (looked up): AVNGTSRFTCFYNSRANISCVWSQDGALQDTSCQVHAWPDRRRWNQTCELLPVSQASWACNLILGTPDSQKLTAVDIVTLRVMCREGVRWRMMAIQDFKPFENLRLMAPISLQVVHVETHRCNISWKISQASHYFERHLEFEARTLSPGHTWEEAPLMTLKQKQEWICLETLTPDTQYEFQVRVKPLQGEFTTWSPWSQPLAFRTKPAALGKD

human CD122 (human) = target: T3, human CD122 (human) (UniProt P14784); assay: assay not described
T3 sequence: T2 sequence (looked up) with R7Q, T66A, A74T, M83L, M92V, K127E, M158L

CD122-FLAG-GPI (human) [3] = target: T1, CD122-FLAG-GPI (human); assay: flow cytometry on NS0/CD122 cells

- binding (CD122-FLAG-GPI (human) [1]): binds
B1: HuABC2 (antibody, human IgG1, kappa, V domains shown)
VH: EVQLVESGGGLVQPGGSLRLSCAASGFTFSDFYMEWVRQAPGKGLEWIAASRNKANDYTTEYSASVKGRFIVSRDDSKNSLYLQMNSLKTEDTAVYYCARSYYRYDGMDYWGQGTTVTVSS
VL: EIVLTQSPATLSLSPGERATLSCSAISSVSYMYWYQQKPGQAPRLLIYDTSNLVSGVPARFSGSGSGTDYTLTISSLEPEDFAVYYCQQWNTYPYTFGGGTKVEIKR
notes: Human IgG1/kappa, wild-type Fc, expressed from pHuABC2p in CHO-K1 and purified on protein A; also called humanized anti-CD122 IgG1/kappa monoclonal antibody

- binding [2]: binds
- binding (human CD122 (human)): binds
- binding (CD122-FLAG-GPI (human) [3]): binds
B2: HuABC77D (antibody, human IgG1, kappa, L234A L235A, V domains shown)
VH: EVQLVESGGGLVQPGGSLRLSCAASGFDFSRYWMSWVRQAPGKGLEWIGEINPDSSTINYAPSLKDRFTISRDNAKNSLYLQMNSLRAEDTAVYYCARHDYDEGIYFDYWGQGTTVTVSS
VL: DIQMTQSPSSLSASVGDRVTITCSASSRVIYMHWYQQKPGKAPKRWIYDTSKLASGVPSRFSGSGSGTEFTLTISSLQPEDFATYYCQQWSSNPPTFGGGTKVEIKR
